In this test the target is T1, FLAG-tagged HLTF (human) (UniProt Q14527).
T1 sequence: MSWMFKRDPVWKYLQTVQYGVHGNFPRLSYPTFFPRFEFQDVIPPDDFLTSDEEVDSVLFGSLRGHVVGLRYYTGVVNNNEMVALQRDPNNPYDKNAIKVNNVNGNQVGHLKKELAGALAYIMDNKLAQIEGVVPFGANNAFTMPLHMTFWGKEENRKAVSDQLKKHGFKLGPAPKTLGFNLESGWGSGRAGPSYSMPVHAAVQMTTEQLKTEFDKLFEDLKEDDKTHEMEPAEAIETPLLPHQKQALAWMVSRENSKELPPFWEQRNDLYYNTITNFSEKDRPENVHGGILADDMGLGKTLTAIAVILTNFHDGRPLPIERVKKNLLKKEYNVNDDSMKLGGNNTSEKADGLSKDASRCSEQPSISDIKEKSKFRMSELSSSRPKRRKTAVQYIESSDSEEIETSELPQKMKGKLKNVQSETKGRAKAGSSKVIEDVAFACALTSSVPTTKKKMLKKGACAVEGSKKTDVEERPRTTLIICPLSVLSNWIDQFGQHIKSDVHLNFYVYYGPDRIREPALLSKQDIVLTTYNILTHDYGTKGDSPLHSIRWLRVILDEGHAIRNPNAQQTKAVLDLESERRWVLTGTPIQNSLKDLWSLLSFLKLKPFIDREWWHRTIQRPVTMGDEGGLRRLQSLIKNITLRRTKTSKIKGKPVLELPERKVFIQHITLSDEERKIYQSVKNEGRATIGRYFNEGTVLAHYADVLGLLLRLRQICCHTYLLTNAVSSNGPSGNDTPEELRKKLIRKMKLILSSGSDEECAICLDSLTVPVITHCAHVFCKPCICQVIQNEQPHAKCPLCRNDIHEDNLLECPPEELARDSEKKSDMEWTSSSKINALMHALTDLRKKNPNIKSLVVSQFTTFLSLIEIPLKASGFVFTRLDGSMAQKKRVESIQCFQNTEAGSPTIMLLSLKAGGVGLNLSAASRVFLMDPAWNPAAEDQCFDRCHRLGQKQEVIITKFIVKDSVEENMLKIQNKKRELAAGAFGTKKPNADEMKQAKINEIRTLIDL
As to the kind of experiment: affinity purification with mass spectrometry; HLTF complex purified from FLAG–HLTF-expressing HEK293 cells; associated proteins subjected to mass spectrometry.

The chains behind the UniProt entries cited, without tags or fusion partners.
UniProt P09874: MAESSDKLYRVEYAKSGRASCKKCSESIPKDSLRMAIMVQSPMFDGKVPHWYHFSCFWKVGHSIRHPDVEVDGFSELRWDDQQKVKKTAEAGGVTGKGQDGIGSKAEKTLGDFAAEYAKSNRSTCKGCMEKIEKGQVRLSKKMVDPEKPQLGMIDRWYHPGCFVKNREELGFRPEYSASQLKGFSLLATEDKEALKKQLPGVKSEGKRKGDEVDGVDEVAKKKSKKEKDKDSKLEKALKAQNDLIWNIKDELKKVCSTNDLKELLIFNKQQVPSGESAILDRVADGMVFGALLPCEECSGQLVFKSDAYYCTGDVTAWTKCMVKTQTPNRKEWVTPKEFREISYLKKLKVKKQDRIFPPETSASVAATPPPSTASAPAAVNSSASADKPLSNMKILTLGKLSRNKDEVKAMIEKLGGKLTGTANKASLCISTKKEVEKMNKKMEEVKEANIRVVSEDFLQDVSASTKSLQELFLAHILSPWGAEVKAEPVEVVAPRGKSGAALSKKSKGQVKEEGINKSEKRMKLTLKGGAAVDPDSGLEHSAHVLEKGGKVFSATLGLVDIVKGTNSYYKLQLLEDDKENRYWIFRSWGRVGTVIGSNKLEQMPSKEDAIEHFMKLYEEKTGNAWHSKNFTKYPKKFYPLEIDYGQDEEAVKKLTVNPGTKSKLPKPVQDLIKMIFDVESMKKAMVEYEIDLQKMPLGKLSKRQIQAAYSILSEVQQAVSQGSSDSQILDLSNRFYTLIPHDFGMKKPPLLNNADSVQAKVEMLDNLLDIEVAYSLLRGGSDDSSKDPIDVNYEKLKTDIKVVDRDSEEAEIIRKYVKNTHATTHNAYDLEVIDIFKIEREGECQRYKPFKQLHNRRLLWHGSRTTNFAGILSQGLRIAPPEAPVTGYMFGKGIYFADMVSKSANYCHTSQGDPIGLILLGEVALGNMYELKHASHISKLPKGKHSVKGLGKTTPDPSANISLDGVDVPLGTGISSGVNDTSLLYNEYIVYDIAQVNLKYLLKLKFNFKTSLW

These are yes or no findings as the source states them, for the method shown. In cells and extracts the contact can be indirect. These calls come from enrichment with a bait or labelling near it, and not all partners need be listed. Sequences can lack the tags named with a protein.

For “PARP1 (endogenous) (from UniProt P09874 1-1014)”, the binding result was “binds”.
